Experimental data as given in the supplement of paper PMC12819154, “High-throughput peptide-centric local stability assay extends protein–ligand identification to membrane proteins, tissues and bacteria” (Nature Structural & Molecular Biology, 2025).
Some of the results follow. Most values lie at the level of the controls, where differences are scatter.

Chains of the proteins cited; added tags and fusions are not shown. Lines headed by an entry give the natural chain unless they say otherwise; changes in a name come on top.
UniProt Q9UPZ3: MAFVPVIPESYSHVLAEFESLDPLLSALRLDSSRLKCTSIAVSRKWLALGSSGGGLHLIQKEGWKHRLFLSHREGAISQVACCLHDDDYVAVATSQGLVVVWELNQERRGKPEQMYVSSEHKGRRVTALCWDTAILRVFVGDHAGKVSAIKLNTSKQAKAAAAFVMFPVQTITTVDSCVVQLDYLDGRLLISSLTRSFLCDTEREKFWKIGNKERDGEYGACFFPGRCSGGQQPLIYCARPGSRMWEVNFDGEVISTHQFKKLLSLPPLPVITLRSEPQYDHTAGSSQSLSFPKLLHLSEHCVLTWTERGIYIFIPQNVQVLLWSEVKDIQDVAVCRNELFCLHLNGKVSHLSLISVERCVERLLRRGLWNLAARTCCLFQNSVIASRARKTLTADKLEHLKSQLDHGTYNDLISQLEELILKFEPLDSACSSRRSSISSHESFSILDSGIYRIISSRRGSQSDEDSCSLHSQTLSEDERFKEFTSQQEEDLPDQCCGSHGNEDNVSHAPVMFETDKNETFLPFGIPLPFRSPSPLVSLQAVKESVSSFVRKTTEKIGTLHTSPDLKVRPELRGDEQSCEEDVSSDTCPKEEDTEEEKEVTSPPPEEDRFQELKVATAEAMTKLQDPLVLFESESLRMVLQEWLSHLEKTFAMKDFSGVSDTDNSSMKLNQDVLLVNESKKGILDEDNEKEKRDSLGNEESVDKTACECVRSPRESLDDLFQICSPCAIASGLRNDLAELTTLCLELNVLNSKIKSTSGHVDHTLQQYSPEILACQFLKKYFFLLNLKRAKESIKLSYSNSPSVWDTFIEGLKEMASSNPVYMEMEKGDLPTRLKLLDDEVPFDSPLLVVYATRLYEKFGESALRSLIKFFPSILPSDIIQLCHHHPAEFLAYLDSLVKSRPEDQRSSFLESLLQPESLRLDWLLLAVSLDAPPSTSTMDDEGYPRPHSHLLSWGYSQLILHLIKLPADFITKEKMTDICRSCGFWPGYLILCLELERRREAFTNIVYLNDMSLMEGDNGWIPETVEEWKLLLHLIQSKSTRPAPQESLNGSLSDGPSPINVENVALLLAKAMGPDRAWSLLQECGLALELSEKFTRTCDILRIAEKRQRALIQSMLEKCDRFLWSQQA
UniProt Q9UL33, whole entry: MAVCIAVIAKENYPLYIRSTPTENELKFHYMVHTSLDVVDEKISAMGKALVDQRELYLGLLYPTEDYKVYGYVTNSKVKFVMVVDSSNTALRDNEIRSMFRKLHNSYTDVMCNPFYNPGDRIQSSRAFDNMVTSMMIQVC
UniProt Q9Y2F5: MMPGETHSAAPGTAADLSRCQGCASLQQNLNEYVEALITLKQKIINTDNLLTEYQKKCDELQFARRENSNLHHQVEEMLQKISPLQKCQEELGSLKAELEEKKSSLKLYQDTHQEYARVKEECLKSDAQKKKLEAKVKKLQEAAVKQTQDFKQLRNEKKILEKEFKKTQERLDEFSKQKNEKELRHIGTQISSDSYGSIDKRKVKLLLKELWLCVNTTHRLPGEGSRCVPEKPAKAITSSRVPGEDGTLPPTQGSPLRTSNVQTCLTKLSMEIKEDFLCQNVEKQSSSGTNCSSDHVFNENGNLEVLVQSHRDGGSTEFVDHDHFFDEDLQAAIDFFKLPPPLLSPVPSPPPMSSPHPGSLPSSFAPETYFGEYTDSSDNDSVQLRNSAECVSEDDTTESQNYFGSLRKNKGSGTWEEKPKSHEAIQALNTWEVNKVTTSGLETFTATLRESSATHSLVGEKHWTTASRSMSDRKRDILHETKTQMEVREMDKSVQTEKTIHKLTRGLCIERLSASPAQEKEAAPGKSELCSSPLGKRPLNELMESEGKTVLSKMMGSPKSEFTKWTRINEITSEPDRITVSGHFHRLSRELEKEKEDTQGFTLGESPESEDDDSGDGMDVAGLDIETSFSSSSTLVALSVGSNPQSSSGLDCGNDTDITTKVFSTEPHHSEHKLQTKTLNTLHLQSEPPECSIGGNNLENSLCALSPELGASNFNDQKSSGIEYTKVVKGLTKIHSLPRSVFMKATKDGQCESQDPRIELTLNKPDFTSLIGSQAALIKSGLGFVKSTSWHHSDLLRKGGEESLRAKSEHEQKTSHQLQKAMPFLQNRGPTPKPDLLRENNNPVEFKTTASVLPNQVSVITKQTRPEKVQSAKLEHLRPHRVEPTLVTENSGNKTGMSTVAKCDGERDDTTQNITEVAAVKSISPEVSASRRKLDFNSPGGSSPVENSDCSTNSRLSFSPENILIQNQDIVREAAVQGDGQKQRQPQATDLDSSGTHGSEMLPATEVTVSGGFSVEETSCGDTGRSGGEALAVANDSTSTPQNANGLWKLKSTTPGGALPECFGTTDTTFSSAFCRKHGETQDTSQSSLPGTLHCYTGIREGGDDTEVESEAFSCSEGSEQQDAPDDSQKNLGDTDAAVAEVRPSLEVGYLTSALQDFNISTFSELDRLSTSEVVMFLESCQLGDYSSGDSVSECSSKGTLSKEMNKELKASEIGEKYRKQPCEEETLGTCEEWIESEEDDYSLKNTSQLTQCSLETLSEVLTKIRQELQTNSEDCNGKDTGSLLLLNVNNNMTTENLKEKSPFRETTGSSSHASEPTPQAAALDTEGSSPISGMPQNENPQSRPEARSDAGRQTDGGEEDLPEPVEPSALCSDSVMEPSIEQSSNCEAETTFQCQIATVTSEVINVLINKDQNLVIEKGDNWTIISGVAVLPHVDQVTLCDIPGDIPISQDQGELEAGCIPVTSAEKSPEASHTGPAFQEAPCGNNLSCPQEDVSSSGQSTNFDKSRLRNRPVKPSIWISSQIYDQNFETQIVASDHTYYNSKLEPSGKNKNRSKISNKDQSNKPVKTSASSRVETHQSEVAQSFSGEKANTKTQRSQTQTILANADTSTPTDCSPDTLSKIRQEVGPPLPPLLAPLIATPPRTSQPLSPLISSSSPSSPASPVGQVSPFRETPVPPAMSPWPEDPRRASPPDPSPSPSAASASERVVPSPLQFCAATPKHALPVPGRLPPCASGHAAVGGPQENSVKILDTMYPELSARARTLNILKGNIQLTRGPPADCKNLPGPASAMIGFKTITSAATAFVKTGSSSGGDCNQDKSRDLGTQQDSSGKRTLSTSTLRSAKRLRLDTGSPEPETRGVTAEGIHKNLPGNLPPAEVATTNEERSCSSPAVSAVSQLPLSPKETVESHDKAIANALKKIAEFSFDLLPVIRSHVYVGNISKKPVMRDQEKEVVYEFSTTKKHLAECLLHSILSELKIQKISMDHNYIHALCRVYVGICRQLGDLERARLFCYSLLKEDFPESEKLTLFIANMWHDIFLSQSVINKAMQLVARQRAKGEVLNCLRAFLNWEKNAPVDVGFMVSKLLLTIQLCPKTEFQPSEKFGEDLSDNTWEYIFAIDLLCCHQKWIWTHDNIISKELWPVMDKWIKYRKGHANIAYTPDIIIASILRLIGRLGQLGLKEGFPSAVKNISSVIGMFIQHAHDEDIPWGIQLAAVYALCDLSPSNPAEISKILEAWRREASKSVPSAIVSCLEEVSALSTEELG
UniProt Q9ULR5: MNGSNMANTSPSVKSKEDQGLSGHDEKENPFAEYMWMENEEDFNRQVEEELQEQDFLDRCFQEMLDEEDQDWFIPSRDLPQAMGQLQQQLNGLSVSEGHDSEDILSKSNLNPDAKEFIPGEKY
UniProt Q9Y2G7: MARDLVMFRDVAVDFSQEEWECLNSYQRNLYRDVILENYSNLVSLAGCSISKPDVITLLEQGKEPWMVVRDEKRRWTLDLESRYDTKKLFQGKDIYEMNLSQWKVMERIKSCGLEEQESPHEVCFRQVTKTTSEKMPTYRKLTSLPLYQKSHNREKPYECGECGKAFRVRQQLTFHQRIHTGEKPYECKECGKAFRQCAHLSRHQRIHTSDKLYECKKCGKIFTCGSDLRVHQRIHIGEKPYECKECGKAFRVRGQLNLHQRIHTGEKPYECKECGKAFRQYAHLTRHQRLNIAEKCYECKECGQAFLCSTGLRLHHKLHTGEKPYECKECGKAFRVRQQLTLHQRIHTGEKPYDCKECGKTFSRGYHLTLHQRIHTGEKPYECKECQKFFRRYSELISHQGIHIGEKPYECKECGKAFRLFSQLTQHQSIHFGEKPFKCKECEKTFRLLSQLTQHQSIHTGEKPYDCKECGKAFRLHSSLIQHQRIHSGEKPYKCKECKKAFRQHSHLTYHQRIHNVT
UniProt Q9UM13, whole entry: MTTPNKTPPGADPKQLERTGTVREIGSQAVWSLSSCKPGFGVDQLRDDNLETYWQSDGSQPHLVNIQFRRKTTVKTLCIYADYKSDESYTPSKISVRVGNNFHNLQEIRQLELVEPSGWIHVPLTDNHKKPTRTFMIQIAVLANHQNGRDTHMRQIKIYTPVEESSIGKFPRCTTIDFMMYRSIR
UniProt Q9UNZ2: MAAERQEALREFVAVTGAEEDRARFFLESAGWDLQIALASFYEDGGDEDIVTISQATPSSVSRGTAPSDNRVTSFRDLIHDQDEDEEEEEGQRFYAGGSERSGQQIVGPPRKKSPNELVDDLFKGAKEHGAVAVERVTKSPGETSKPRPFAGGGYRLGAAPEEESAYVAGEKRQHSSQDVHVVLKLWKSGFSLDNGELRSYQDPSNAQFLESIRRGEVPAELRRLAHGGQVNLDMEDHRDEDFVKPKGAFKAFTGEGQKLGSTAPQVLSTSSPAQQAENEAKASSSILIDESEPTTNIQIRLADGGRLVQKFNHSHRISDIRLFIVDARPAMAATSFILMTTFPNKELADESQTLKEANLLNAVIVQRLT
UniProt Q9UNT1: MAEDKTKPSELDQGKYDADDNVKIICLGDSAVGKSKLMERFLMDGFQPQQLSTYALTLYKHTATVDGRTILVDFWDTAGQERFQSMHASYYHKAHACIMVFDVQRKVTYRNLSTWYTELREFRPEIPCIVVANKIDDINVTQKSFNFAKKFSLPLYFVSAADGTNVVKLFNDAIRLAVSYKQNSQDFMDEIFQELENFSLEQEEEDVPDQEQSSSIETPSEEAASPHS
UniProt Q9UQC2, whole entry: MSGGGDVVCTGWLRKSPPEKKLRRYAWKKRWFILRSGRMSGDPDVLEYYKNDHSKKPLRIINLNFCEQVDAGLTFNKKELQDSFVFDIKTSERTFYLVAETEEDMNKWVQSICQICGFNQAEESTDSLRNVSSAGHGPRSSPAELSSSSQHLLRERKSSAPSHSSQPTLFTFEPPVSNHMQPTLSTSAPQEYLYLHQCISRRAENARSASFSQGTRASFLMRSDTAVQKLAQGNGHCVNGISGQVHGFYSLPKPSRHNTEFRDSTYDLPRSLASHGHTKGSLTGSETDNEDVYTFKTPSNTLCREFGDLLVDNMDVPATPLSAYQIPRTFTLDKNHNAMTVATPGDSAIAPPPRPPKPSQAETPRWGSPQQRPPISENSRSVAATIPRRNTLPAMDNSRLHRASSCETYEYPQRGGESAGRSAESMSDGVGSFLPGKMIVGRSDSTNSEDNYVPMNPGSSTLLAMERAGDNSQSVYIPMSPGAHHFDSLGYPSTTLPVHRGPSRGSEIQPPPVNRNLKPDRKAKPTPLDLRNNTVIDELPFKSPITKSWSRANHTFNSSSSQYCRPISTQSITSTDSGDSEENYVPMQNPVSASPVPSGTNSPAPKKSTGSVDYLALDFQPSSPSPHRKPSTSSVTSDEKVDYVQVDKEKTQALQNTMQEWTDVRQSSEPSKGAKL
UniProt Q9UNF1: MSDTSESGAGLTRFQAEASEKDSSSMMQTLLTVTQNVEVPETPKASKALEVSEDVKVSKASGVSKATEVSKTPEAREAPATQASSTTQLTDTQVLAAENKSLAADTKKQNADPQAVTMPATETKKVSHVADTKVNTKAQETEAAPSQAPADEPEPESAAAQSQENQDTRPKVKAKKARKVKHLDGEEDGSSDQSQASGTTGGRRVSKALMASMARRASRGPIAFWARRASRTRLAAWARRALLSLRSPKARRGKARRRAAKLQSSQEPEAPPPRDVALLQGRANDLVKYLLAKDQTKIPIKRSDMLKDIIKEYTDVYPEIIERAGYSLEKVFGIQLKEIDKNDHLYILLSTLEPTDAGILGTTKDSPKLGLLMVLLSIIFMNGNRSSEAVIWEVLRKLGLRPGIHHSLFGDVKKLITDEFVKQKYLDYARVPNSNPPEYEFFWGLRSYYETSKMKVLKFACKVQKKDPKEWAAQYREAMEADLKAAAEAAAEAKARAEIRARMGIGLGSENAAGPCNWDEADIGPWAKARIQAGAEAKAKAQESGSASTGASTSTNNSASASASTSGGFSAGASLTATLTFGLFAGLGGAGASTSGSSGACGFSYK
UniProt Q9Y294, whole entry: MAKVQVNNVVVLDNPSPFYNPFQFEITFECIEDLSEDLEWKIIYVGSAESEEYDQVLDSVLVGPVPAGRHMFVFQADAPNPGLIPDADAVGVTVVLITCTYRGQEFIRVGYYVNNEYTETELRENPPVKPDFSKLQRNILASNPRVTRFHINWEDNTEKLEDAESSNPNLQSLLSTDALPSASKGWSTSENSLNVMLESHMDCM

Compound: CN[C@@H]1C[C@H]2O[C@@](C)([C@@H]1OC)n1c3ccccc3c3c4c(c5c6ccccc6n2c5c31)C(=O)NC4 [staurosporine]
Assay: log2 fold change of tryptic peptide abundance, ligand vs vehicle (limited proteolysis) (log2 ratio); higher = more trypsin-susceptible (destabilized)
Settings: ligand concentration: 20 uM; sample: K562 cleared lysate; digestion: 4 min, 22 C (HT-PELSA RT4min, Orbitrap Astral)

Target	log2 fold change
HPS5 (peptide sequence: VSHLSLISVER, peptide start residue: 349) (UniProt Q9UPZ3)	0.65
MRPS7 (peptide sequence: WMITECR, peptide start residue: 186) (UniProt Q9Y2R9)	-0.237
NOP58 (peptide sequence: MMAIAPNVTVMVGELVGAR, peptide start residue: 279) (UniProt Q9Y2X3)	-0.644
TRAPPC2L (peptide sequence: STPTENELK, peptide start residue: 19) (UniProt Q9UL33)	0.0173
RRP7A (peptide sequence: CAARDPEDRIPSPLGYAAIPIK, peptide start residue: 8) (UniProt Q9Y3A4)	0.425
ICE1 (peptide sequence: ESSATHSLVGEK, peptide start residue: 451) (UniProt Q9Y2F5)	0.664
UniProt Q9ULR5 (peptide sequence: SKEDQGLSGHDEK, peptide start residue: 15)	-0.232
MACF1 (peptide sequence: LRLEEEVEACKAR, peptide start residue: 1016) (UniProt Q9UPN3)	-1.17
UniProt Q9Y2G7 (peptide sequence: WTLDLESR, peptide start residue: 76)	0.29
UNC13A (peptide sequence: LKDHMVR, peptide start residue: 1335) (UniProt Q9UPW8)	0.265
POLI (peptide sequence: DKPLGVQQK, peptide start residue: 77) (UniProt Q9UNA4)	0.177
ANKRD50 (peptide sequence: SSGCFLYLER, peptide start residue: 299) (UniProt Q9ULJ7)	-0.608
SUFU (peptide sequence: DSLESDSSTAIIPHELIR, peptide start residue: 345) (UniProt Q9UMX1)	-0.383
UniProt Q9UMZ2 (peptide sequence: SELATFDLSVQGSHKR, peptide start residue: 1057)	-0.2
AGTPBP1 (peptide sequence: INAEPSESDTAR, peptide start residue: 28) (UniProt Q9UPW5)	-0.147
ANAPC10 (peptide sequence: CTTIDFMMYR, peptide start residue: 173) (UniProt Q9UM13)	-0.159
NSFL1C (peptide sequence: FYAGGSER, peptide start residue: 94) (UniProt Q9UNZ2)	-0.105
MRPS28 (peptide sequence: NVESFASMLR, peptide start residue: 76) (UniProt Q9Y2Q9)	-0.118
UniProt Q9ULE0 (peptide sequence: ERLEEELR, peptide start residue: 305)	0.097
UniProt Q9UM82 (peptide sequence: STQLSHLVYR, peptide start residue: 511)	0.633
UniProt Q9UNT1 (peptide sequence: AHACIMVFDVQR, peptide start residue: 94)	0.303
GAB2 (peptide sequence: ANHTFNSSSSQYCR, peptide start residue: 552) (UniProt Q9UQC2)	0.96
FBXO9 (peptide sequence: RAMQLVPDIEFK, peptide start residue: 119) (UniProt Q9UK97)	-0.242
MAGED2 (peptide sequence: ALMASMAR, peptide start residue: 208) (UniProt Q9UNF1)	-0.188
GIT1 (peptide sequence: LQAENLQLR, peptide start residue: 464) (UniProt Q9Y2X7)	-0.141
ASF1A (peptide sequence: NILASNPR, peptide start residue: 138) (UniProt Q9Y294)	0.0575
RPL26L1 (peptide sequence: HFNAPSHVR, peptide start residue: 18) (UniProt Q9UNX3)	0.0972
UniProt Q9UQ16 (peptide sequence: MGTPHLQK, peptide start residue: 272)	0.193
MRPS2 (peptide sequence: FMEPYIFGSR, peptide start residue: 101) (UniProt Q9Y399)	-0.171

Some of the entries so far, field by field:
TRAPPC2L (peptide sequence: STPTENELK, peptide start residue: 19) (UniProt Q9UL33)
  log2 fold change: 0.0173
RRP7A (peptide sequence: CAARDPEDRIPSPLGYAAIPIK, peptide start residue: 8) (UniProt Q9Y3A4)
  log2 fold change: 0.425
